PubChem BioAssay AID1053209 | Peter MacCallum Cancer Centre – 2014
Assay: 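Follow-up of single siRNAs that strengthen doxorubicin killing in osteosarcoma cells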 (follow-up of hits). System: mouse primary osteosarcoma cells. Reagent: single siRNA against mouse genes, 25 nM (text also states 40 nM). Duration: about 120 h (48 h before drug, then 72 h with drug). Challenge: doxorubicin 100 nM (about IC30-40), added 48 h after transfection, for 72 h. Measured: 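Viability measured by ATP luminescence with and without doxorubicin, each replicate scaled to non-targeting siRNA NT1, averaged over two replicates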. Direction: viability with doxorubicin, vs NT1: higher = more viable cells under doxorubicin; viability ratio, doxorubicin over no drug: higher = less sensitisation to doxorubicin; viability without drug, vs NT1: higher = more viable cells without drug. Rule for the call: 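Active when doxorubicin viability is at most 0.7 of NT1 and drug-free viability lies between 0.7 and 1.1, class LC dox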.
In all, the deposit lists about 1,580 reagents; this is a part drawn at random. 207 of all reagents (13%) count as active. 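Rows are single siRNAs; four siRNAs per gene were tested, a gene counting as confirmed only when at least two agree.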 A number with no mark means an inactive call. The numbers tell different reagents against one gene apart.

target,siRNA no.,combined effect class,"viability with doxorubicin, vs NT1","viability ratio, doxorubicin over no drug","viability without drug, vs NT1"
Rph3al (GeneID 380714),1,low viability only with doxorubicin; normal without drug (active),0.7,0.73,0.96
Rph3al (GeneID 380714),2,normal viability with and without drug,0.96,0.93,1.03
Rph3al (GeneID 380714),3,normal viability with and without drug,1,0.96,1.04
Rph3al (GeneID 380714),4,normal viability with and without drug,0.78,0.76,1.03
Prxl2c (GeneID 66129),1,normal viability with and without drug,0.88,0.97,0.91
Prxl2c (GeneID 66129),2,normal viability with and without drug,0.98,0.94,1.04
Prxl2c (GeneID 66129),3,high viability only with doxorubicin,1.12,1.03,1.09
Prxl2c (GeneID 66129),4,low viability with and without drug,0.13,0.26,0.5
Il11ra2 (GeneID 16158),1,normal viability with and without drug,0.92,0.92,1
Il11ra2 (GeneID 16158),2,normal viability with and without drug,1,1.11,0.9
Il11ra2 (GeneID 16158),3,normal viability with and without drug,1.02,1.02,1
Il11ra2 (GeneID 16158),4,normal viability with and without drug,0.82,0.89,0.92
Pirb (GeneID 18733),1,normal viability with and without drug,0.9,0.92,0.98
Pirb (GeneID 18733),2,normal viability with and without drug,0.75,0.8,0.94
Pirb (GeneID 18733),3,low viability only with doxorubicin; normal without drug (active),0.31,0.41,0.75
Pirb (GeneID 18733),4,normal viability with and without drug,0.94,0.92,1.02
Prpf31 (GeneID 68988),1,normal viability with and without drug,0.76,0.93,0.82
Prpf31 (GeneID 68988),2,normal viability with and without drug,1.05,1.17,0.9
Prpf31 (GeneID 68988),3,low viability only without drug,0.94,1.42,0.66
Prpf31 (GeneID 68988),4,normal viability with and without drug,0.89,0.96,0.93
Plk2 (GeneID 20620),1,low viability with and without drug,0.16,0.42,0.38
Plk2 (GeneID 20620),2,normal viability with and without drug,0.89,0.89,1
Plk2 (GeneID 20620),3,normal viability with and without drug,1,1,1
Plk2 (GeneID 20620),4,normal viability with and without drug,0.94,0.87,1.08
Pcdhb11 (GeneID 93882),1,low viability only with doxorubicin; normal without drug (active),0.42,0.55,0.76
Pcdhb11 (GeneID 93882),2,high viability only without drug,1.08,0.96,1.12
Pcdhb11 (GeneID 93882),3,low viability only with doxorubicin; normal without drug (active),0.7,0.8,0.88
Pcdhb11 (GeneID 93882),4,normal viability with and without drug,1.02,1,1.02
Med14 (GeneID 26896),1,low viability with and without drug,0.46,0.69,0.67
Med14 (GeneID 26896),2,low viability only with doxorubicin; normal without drug (active),0.48,0.62,0.77
Med14 (GeneID 26896),3,low viability only with doxorubicin; normal without drug (active),0.6,0.65,0.92
Med14 (GeneID 26896),4,normal viability with and without drug,0.72,0.83,0.87
Nxf1 (GeneID 53319),1,normal viability with and without drug,0.76,0.79,0.96
Nxf1 (GeneID 53319),2,low viability with and without drug,0.23,0.35,0.65
Nxf1 (GeneID 53319),3,low viability with and without drug,0.16,0.26,0.61
Nxf1 (GeneID 53319),4,low viability with and without drug,0.11,0.2,0.55
Mras (GeneID 17532),1,low viability only with doxorubicin; normal without drug (active),0.49,0.63,0.78
Mras (GeneID 17532),2,normal viability with and without drug,1.04,0.99,1.05
Mras (GeneID 17532),3,normal viability with and without drug,0.92,0.96,0.96
Mras (GeneID 17532),4,normal viability with and without drug,0.98,0.96,1.02
Psmd11 (GeneID 69077),1,low viability with and without drug,0.22,0.61,0.36
Psmd11 (GeneID 69077),2,low viability with and without drug,0.38,0.55,0.69
Psmd11 (GeneID 69077),3,low viability only with doxorubicin; normal without drug (active),0.64,0.86,0.74
Psmd11 (GeneID 69077),4,low viability only with doxorubicin; normal without drug (active),0.48,0.65,0.74
Cep55 (GeneID 74107),1,normal viability with and without drug,0.8,0.89,0.9
Cep55 (GeneID 74107),2,normal viability with and without drug,0.96,1,0.96
Cep55 (GeneID 74107),3,normal viability with and without drug,0.81,0.89,0.91
Cep55 (GeneID 74107),4,normal viability with and without drug,0.82,0.82,1
Rps13 (GeneID 68052),1,low viability with and without drug,0.14,0.82,0.17
Rps13 (GeneID 68052),2,low viability with and without drug,0.24,0.63,0.38
Rps13 (GeneID 68052),3,low viability with and without drug,0.16,0.73,0.22
Rps13 (GeneID 68052),4,low viability with and without drug,0.26,0.65,0.4
Thoc7 (GeneID 66231),1,normal viability with and without drug,1.02,0.98,1.04
Thoc7 (GeneID 66231),2,low viability only with doxorubicin; normal without drug (active),0.67,0.74,0.91
Thoc7 (GeneID 66231),3,normal viability with and without drug,0.83,0.88,0.94
Thoc7 (GeneID 66231),4,normal viability with and without drug,1.06,1.14,0.93
Rps3 (GeneID 27050),1,low viability with and without drug,0.28,0.93,0.3
Rps3 (GeneID 27050),2,low viability only with doxorubicin; normal without drug (active),0.6,0.81,0.74
Rps3 (GeneID 27050),3,low viability with and without drug,0.21,0.75,0.28
Rps3 (GeneID 27050),4,low viability with and without drug,0.29,1.07,0.27
